In publication doi:10.1101/431791:

T1: AUR1, yeast two-hybrid fusion (A. thaliana) (UniProt Q9M077)
T1 sequence: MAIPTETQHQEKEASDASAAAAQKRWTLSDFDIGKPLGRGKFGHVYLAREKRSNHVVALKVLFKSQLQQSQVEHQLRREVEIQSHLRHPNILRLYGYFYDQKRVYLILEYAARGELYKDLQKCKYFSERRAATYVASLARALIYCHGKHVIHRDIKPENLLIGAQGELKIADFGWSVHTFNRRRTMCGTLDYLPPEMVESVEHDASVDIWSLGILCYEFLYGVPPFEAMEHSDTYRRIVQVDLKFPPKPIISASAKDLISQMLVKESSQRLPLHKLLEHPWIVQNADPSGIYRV


Legend:
[1] = target: T1, AUR1, yeast two-hybrid fusion (A. thaliana); assay: two-hybrid
[2] = target: TPXL2, yeast two-hybrid fusion (A. thaliana); assay: two-hybrid

| binding [1] | binding [2] | Molecule |
| --- | --- | --- |
| binds | – | TPXL2, yeast two-hybrid fusion (A. thaliana) |
| no binding | – | TPXL3, yeast two-hybrid fusion (A. thaliana) |
| – | binds | AUR1, yeast two-hybrid fusion (enzyme, UniProt Q9M077 1-294) MAIPTETQHQEKEASDASAAAAQKRWTLSDFDIGKPLGRGKFGHVYLAREKRSNHVVALKVLFKSQLQQSQVEHQLRREVEIQSHLRHPNILRLYGYFYDQKRVYLILEYAARGELYKDLQKCKYFSERRAATYVASLARALIYCHGKHVIHRDIKPENLLIGAQGELKIADFGWSVHTFNRRRTMCGTLDYLPPEMVESVEHDASVDIWSLGILCYEFLYGVPPFEAMEHSDTYRRIVQVDLKFPPKPIISASAKDLISQMLVKESSQRLPLHKLLEHPWIVQNADPSGIYRV |

No constants are given. Whether binding was seen depends on the method and setting. Binding can be weak; no strength is given. Tags and fused reporters may be left off the sequences shown.
